Measured values: patent US20250325643A1
Results are given in words; binding and its absence hold for the method and conditions named. Some results given as binding are weak or reduced against the parent protein; the word gives no strength. Sequences can lack the tags named with a protein.

Amino acid sequences for entries named in this document (tags omitted). A change or cut given only in a name is not applied to a line headed by its entry.
UniProt P26842: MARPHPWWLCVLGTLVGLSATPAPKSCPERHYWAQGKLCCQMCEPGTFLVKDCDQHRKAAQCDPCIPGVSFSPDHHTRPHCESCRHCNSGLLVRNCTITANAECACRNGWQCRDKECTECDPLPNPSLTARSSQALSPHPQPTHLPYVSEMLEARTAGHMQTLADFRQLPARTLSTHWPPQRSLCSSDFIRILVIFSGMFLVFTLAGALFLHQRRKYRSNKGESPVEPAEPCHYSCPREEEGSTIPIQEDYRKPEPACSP

Tests used:
[1] = target: human CD27 expressed on cells (T cells, transfected HEK293F cells, Daudi cells, NFκB-luc2/CD27 Jurkat reporter cells) (human) (UniProt P26842); assay: flow cytometry on T cells and transfected HEK293F cells
[2] = target: human CD27 expressed on cells (T cells, transfected HEK293F cells, Daudi cells, NFκB-luc2/CD27 Jurkat reporter cells) (human) (UniProt P26842); assay: flow cytometry on HEK293F cells transiently transfected with human CD27, PE-labelled goat anti-human IgG, median MFI PE
[3] = target: human CD27 expressed on cells (T cells, transfected HEK293F cells, Daudi cells, NFκB-luc2/CD27 Jurkat reporter cells) (human) (UniProt P26842); assay: flow cytometry on human T cells and HEK293F cells transfected with human CD27
[4] = target: human CD27 expressed on cells (T cells, transfected HEK293F cells, Daudi cells, NFκB-luc2/CD27 Jurkat reporter cells) (human) (UniProt P26842); assay: flow cytometry on T cells in human PBMC (endogenous CD27), PE-labelled goat anti-human IgG, median MFI PE

Measured: binding

B1: IgG1-CD27-A carrying mutations F405L-L234F-L235E-D265A in the IgG Fc domain (antibody, V domains shown)
VH: QVQLMQSGSELKKPGASVKVSCRASGYTFTTYAMNWVRQAPGQGPEWMGWINTNTGNPTYAQGFTGRFVFSLDTTVTTTYLQISSLKAEDTAVYFCAREAGSFDYWGQGTLVTVSS
VL: QSALTQPASVSGSPGQSITISCTGTSSDVYYYNYVSWYQQHPGRAPKLVIYDVSNRPSGVSNRFSGSKSGNTASLTISGLRAEDEADYYCSSYTVNRVWVFGGGTKLTVL
binds: all assays above
